Consider 20 targets from the supplement of paper PMC11732987, “Enantioselective OTUD7B fragment discovery through chemoproteomics screening and high-throughput optimisation” (Communications Chemistry, 2025).

Sequences of proteins named here, by UniProt entry; tags and fusion partners are left off. A change or cut given only in a name is not applied to a line headed by its entry.
UniProt Q9BPY3: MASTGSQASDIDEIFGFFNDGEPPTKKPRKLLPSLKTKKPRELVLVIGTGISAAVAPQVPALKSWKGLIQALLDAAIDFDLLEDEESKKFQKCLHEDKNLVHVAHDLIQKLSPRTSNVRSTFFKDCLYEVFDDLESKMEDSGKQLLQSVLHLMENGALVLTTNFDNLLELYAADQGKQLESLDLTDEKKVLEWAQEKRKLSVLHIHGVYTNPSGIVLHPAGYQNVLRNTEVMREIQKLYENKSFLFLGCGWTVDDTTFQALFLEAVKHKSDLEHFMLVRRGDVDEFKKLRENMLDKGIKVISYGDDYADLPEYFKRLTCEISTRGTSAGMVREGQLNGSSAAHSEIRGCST
UniProt Q9NV70: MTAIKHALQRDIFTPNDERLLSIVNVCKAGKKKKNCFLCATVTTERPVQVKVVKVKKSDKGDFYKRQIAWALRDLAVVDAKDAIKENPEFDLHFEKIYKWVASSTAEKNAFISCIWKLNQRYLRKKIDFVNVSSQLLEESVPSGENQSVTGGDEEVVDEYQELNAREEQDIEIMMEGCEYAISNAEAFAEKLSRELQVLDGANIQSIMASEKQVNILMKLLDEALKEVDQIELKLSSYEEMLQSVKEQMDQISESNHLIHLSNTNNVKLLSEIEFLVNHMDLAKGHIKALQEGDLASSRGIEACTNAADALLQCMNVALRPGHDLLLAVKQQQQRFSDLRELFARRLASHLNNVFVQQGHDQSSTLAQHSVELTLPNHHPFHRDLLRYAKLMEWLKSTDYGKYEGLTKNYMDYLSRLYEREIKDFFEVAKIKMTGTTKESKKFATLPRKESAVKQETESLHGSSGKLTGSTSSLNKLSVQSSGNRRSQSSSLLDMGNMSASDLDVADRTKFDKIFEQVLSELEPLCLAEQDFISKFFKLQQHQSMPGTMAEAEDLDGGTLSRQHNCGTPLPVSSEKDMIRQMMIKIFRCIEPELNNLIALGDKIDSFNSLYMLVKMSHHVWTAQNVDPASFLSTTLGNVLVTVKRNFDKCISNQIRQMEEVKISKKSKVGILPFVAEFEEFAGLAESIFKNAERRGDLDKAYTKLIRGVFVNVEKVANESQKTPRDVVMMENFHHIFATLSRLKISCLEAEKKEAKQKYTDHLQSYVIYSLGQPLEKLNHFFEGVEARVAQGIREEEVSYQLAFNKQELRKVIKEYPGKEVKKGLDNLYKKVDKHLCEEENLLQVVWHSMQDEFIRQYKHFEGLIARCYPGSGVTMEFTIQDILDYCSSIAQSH
UniProt Q15024, whole entry, looked up: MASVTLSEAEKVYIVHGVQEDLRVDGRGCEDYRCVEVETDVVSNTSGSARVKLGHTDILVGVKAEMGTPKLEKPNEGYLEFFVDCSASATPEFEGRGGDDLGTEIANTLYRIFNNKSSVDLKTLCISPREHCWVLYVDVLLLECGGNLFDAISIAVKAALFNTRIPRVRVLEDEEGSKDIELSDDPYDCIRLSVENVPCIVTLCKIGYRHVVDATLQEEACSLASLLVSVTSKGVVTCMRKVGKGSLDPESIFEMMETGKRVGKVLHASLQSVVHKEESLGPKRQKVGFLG
UniProt Q2NKX8: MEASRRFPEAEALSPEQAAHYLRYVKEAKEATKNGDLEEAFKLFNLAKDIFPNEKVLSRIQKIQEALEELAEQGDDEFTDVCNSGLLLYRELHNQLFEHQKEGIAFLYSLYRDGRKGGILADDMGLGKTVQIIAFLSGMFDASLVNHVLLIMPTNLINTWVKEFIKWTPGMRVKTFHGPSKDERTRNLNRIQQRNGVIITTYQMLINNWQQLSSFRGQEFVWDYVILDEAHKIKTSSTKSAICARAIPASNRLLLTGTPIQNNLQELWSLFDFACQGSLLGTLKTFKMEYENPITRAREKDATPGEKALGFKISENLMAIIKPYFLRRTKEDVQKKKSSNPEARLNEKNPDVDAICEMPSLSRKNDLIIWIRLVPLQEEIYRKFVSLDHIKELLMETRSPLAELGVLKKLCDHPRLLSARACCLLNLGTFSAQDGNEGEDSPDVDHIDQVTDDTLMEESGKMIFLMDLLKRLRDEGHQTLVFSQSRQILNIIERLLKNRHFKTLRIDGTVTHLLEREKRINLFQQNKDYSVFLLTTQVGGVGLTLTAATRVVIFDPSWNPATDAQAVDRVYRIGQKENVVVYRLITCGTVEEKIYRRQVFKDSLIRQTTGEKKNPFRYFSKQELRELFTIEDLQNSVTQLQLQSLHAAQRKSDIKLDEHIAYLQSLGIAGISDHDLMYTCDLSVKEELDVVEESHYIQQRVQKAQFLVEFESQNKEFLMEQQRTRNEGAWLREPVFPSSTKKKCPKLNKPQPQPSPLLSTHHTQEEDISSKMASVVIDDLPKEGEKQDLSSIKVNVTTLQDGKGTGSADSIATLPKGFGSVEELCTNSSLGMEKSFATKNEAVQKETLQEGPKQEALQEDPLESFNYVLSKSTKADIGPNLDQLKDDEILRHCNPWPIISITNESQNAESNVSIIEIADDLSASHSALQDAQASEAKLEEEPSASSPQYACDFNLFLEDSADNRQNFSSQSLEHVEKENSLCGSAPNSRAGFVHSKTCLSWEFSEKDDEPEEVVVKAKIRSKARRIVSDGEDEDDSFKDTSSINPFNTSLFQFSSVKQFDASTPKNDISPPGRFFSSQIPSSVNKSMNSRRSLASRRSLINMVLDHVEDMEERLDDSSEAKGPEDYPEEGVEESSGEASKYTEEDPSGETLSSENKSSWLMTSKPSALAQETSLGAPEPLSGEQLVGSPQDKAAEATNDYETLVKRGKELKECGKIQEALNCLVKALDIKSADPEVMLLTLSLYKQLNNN
UniProt O95163: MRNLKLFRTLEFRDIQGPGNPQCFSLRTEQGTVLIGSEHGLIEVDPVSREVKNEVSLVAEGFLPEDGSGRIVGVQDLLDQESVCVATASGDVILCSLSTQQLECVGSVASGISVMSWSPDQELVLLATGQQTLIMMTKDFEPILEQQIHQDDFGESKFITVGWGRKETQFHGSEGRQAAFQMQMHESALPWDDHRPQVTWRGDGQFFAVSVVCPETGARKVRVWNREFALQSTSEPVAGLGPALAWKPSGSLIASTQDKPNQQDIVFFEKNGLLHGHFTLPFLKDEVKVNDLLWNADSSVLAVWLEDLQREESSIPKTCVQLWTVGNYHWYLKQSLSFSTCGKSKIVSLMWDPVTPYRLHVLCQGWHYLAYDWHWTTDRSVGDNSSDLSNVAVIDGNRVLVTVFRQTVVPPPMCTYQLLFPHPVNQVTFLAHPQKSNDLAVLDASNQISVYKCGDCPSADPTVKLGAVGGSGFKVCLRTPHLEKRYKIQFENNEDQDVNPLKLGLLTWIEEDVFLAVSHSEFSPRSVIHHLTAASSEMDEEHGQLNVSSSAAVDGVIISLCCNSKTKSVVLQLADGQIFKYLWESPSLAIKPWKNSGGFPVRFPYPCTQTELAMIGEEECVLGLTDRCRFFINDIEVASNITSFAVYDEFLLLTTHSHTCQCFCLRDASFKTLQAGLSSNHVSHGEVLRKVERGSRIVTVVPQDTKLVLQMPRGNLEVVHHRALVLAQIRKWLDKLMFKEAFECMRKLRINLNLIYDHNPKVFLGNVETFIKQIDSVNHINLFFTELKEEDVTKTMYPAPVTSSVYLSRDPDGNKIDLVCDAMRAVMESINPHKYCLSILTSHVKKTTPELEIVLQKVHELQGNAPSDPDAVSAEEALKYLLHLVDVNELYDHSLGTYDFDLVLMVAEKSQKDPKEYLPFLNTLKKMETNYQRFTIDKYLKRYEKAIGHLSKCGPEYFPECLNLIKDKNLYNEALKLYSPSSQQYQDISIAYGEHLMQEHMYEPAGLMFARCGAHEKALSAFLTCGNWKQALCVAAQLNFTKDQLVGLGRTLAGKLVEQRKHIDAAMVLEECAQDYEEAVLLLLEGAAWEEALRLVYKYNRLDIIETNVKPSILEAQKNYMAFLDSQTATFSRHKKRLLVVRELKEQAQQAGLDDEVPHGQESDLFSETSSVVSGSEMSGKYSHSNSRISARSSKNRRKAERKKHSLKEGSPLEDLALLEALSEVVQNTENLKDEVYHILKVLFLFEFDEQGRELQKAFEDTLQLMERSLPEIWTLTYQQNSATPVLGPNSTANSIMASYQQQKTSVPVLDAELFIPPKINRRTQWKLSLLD
UniProt O00471: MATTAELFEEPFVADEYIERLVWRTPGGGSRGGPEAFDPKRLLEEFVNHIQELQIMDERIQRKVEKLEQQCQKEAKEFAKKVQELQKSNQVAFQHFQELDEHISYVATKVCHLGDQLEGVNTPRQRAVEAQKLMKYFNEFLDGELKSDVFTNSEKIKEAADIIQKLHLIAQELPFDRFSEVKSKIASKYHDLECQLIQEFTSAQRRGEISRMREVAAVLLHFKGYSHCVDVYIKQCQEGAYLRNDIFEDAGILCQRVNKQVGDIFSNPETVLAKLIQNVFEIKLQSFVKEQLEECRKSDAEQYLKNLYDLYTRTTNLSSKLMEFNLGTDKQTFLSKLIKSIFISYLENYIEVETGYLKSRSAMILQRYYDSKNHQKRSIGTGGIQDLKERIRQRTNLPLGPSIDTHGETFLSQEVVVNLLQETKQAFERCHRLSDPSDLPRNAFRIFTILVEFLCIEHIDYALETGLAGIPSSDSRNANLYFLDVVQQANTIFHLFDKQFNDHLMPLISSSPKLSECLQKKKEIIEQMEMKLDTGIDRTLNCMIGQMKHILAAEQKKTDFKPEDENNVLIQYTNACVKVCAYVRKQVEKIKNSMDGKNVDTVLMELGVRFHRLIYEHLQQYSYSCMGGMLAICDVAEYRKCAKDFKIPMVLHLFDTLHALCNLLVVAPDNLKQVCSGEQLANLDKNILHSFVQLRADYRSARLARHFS
UniProt Q92979: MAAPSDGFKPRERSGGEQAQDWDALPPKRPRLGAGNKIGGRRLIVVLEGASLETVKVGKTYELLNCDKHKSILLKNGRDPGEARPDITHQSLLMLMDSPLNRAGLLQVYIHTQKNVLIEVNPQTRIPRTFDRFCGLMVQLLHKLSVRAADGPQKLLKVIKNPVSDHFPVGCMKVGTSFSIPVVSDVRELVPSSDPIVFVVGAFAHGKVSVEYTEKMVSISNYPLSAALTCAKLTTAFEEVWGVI
UniProt Q7L5Y1: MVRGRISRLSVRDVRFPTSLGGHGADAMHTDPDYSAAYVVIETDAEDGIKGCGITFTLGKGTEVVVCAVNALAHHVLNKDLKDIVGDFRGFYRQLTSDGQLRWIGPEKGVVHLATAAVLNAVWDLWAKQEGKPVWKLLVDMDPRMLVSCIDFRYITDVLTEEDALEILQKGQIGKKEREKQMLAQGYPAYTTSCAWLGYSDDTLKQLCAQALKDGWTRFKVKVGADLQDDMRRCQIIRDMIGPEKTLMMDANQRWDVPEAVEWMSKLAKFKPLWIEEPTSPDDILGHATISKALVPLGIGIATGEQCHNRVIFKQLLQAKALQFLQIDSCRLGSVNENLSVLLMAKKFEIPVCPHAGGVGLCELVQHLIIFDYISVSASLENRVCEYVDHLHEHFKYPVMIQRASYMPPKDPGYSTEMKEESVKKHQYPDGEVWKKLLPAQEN
UniProt Q9BS26: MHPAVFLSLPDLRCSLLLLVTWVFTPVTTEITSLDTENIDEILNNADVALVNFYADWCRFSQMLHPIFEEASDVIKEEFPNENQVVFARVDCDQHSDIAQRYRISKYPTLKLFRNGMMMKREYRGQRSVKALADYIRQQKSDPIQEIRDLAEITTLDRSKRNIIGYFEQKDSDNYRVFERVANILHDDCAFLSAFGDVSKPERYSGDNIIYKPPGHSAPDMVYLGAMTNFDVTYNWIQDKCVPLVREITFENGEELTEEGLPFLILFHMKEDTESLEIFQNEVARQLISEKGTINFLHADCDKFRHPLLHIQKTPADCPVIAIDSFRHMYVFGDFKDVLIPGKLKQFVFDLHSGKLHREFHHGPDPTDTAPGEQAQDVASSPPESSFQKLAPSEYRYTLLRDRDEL
UniProt Q8IV48: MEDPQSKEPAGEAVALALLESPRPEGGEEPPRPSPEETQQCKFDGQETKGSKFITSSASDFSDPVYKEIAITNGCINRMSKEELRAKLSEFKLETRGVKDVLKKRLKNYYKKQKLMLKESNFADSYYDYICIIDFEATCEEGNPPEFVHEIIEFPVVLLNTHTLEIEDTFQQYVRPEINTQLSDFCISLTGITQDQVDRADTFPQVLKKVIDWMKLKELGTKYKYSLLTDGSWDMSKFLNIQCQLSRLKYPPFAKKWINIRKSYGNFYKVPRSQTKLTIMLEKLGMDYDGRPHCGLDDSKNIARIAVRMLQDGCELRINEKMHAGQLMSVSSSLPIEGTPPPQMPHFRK

This is one part of the list. The data scatter; read single values as rough.

Compound in the first experiment: ClCC(=O)N[C@H]1CCCc2ccccc12
The experiment is described as follows: log2 mean competition ratio of IA-DTB cysteine labelling (DMSO/compound) (log2 ratio); higher = stronger cysteine engagement by compound. The settings on record: 50 µM; treatment time: 4 h; cell line lysate: HEK293T. How it is done:
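IA-DTB competitive cysteine chemoproteomics in HEK293T RIPA lysate. Lysates were treated with compound 29 or 30 at 50 or 200 µM for 4 h, then IA-DTB (500 µM, 1 h), trypsin-digested, NeutrAvidin-enriched and analysed by diaPASEF. Competition ratio = intensity DMSO / intensity compound (n=4 treated, n=64 DMSO); binding: mean log2 CR ≥ 1 and p ≤ 0.05 plus QC filters. Target is the cysteine site.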
Consider EZH1 C696, for which the “log2 mean competition ratio” value is -0.0694.
On the same count and under the same terms, the value for FAM118B C319 (UniProt Q9BPY3) was 0.555; that for EXOC1 C650 (UniProt Q9NV70) was 0.381; that for FAM83H C789 (UniProt Q6ZRV2) was -0.35.
On the same count and under the same terms, the value for EXOSC7 C238 (UniProt Q15024) was 0.247; that for ERI3 C245 was -0.508; that for EXOC4 C100 (UniProt Q96A65) was 0.198.
The same measure, in the same setting: the value for ERCC6L C825 (UniProt Q2NKX8) was 0.217; that for ELP1 C213 (UniProt O95163) was 0.3.
Regarding EXOC5 C675 (UniProt O00471), the “log2 mean competition ratio” value is -0.316.
In the case of FAM120B C380(C404) (UniProt Q96EK7), the “log2 mean competition ratio” value is -0.112.
Take ERMP1 C43 (UniProt Q7Z2K6): the “log2 mean competition ratio” value was 0.313.
Same read-out and setting: the result for EMG1 C171 (UniProt Q92979) reads -0.697; that for EPHB3 C772 (UniProt P54753), -0.0263; that for ERAP1 C193 (UniProt Q9NZ08), -0.184.
Same read-out and setting: the result for ERCC4 C176 (UniProt Q92889) reads -0.0074; that for ENOSF1 C307 (UniProt Q7L5Y1), 0.678.
Consider ESPNL C983, for which the “log2 mean competition ratio” value was -0.0762.
With ERP44 C92 (UniProt Q9BS26), the “log2 mean competition ratio” value was -0.259.
On to ERI1 C75 (UniProt Q8IV48), for which the “log2 mean competition ratio” value came to 0.621.

Staying with this experiment, now noted: 200 µM; treatment time: 4 h; cell line lysate: HEK293T.
Consider EZH1 C696, for which the “log2 mean competition ratio” value worked out at 0.0983.
For FAM118B C319 (UniProt Q9BPY3), the “log2 mean competition ratio” value came out at 0.298.
On the same count and under the same terms, the value for EXOC1 C650 (UniProt Q9NV70) was 0.000319; that for FAM83H C789 (UniProt Q6ZRV2) was 0.145.
On to EXOSC7 C238 (UniProt Q15024), for which the “log2 mean competition ratio” value was -0.0944.
On the same count and under the same terms, the value for ERI3 C245 was 0.0807; that for EXOC4 C100 (UniProt Q96A65) was -0.083; that for ERCC6L C825 (UniProt Q2NKX8) was -0.0912.
In the case of ELP1 C213 (UniProt O95163), the “log2 mean competition ratio” value was -0.193.
Same read-out and setting: the result for EXOC5 C675 (UniProt O00471) reads 0.0586; that for FAM120B C380(C404) (UniProt Q96EK7), 0.182; that for ERMP1 C43 (UniProt Q7Z2K6), 0.137.
For the target EMG1 C171 (UniProt Q92979), the “log2 mean competition ratio” value was 0.00517.
Still for that read-out and setting: the result for EPHB3 C772 (UniProt P54753) reads 0.163.
Same read-out and setting: the result for ERAP1 C193 (UniProt Q9NZ08) reads 0.197.
Regarding ERCC4 C176 (UniProt Q92889), the “log2 mean competition ratio” value is 0.23.
Same read-out and setting: the result for ENOSF1 C307 (UniProt Q7L5Y1) reads 0.921.
The same measure, in the same setting: the value for ESPNL C983 was 0.0466; that for ERP44 C92 (UniProt Q9BS26) was -0.132.
On the same count and under the same terms, the result for ERI1 C75 (UniProt Q8IV48) reads 0.134.
